Values from PubChem BioAssay AID1259254 (NCATS, 2017).

- Test: 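Finding genes that stop cells copying their DNA twice in one cycle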 (primary screen)
- System: human HCT116 colorectal cancer cells
- Knock-down reagent: single siRNA against human genes
- Time to read-out: 3 days
- Detection: 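Nuclei stained with Hoechst and imaged; cell-cycle phase assigned by DNA content; G2 share scaled per plate, non-targeting siRNA 0%, GMNN siRNA 100%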
- Reading the numbers: G2 robust z-score and G2 cells, % of GMNN control: higher = more G2 cells, more excess DNA replication; raw share of cells in G2: higher = larger share of cells with G2 DNA content
- Rule for the call: 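Active siRNAs have a G2 robust z of 5 or more median absolute deviations over the median, which in these data means about 38% or higher of GMNN control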
The whole screen tested about 59,000 reagents; shown is a part drawn at random. About 1,550 of them (2.6%) count as active. 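G2 share is only a proxy for re-replication; each gene was hit by three separate siRNAs, and active genes were retested.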 The raw values are shown without normalisation. A number with no mark means an inactive call. The numbers tell different reagents against one gene apart. No sequences are given here. Not given: the amount of reagent.

| gene symbol | siRNA no. | G2 robust z-score | G2 cells, % of GMNN control | raw share of cells in G2 (%) |
| --- | --- | --- | --- | --- |
| GIN1 | 1 | -0.879 | -3.21 | 4.44 |
| GIN1 | 2 | 1.45 | 13.1 | 9.56 |
| GIN1 | 3 | -0.632 | -1.48 | 3.36 |
| LRIT1 | 1 | 0.264 | 4.82 | 5.57 |
| LRIT1 | 2 | 2 | 17.1 | 13.9 |
| LRIT1 | 3 | 0.1 | 3.67 | 5.41 |
| PCSK7 | 1 | -0.621 | -1.4 | 5.07 |
| PCSK7 | 2 | 4.22 | 32.6 | 16.5 |
| PCSK7 | 3 | -0.804 | -2.69 | 2.91 |
| CBFA2T3 | 1 | -0.573 | -1.06 | 3.04 |
| CBFA2T3 | 2 | -0.748 | -2.29 | 3.77 |
| CBFA2T3 | 3 | 0.396 | 5.76 | 5.2 |
| KCNA6 | 1 | 1.42 | 13 | 10 |
| KCNA6 | 2 | 3.13 | 25 | 13.2 |
| KCNA6 | 3 | -0.0491 | 2.62 | 5.4 |
| EYA1 | 1 | 6.36 (active) | 47.7 | 22.6 |
| EYA1 | 2 | 3.34 | 26.4 | 15.3 |
| EYA1 | 3 | 3.31 | 26.2 | 13 |
| ABCG2 | 1 | -0.374 | 0.334 | 3.31 |
| ABCG2 | 2 | 0.833 | 8.83 | 8.33 |
| ABCG2 | 3 | 0.52 | 6.63 | 7.71 |
| CACTIN | 1 | -0.514 | -0.652 | 4.09 |
| CACTIN | 2 | -0.264 | 1.11 | 4.99 |
| CACTIN | 3 | 3.41 | 27 | 11.6 |
| TADA1 | 1 | -0.735 | -2.2 | 3.21 |
| TADA1 | 2 | -0.881 | -3.23 | 2.37 |
| TADA1 | 3 | 0.106 | 3.71 | 2.9 |
| HMGB1P1 | 1 | 0.416 | 5.9 | 7.99 |
| HMGB1P1 | 2 | -1.05 | -4.43 | 2.09 |
| HMGB1P1 | 3 | 0.806 | 8.64 | 6.55 |
